Values from PubChem BioAssay AID1671195 (Yale University, 2021).
This is one part, drawn at random, of about 22,000 reagents tested. About 1,510 of them (6.9%) count as active. 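Active includes knockdowns raising or lowering LDL uptake; positive z-scores mean more uptake, negative mean less.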 Entries without a mark were called inactive. No sequences are given here.

Test: 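Knockdowns that increase or decrease uptake of fluorescent LDL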 (primary screen)
Cell system: human Huh7 hepatoma cells
Reagent: siRNA pool against human genes, 18 nM
Time to read-out: about 2 to 2.5 days of knockdown, then 8 h LDL uptake
Treatment: DiI-labelled LDL at 30 µg/ml for 8 h, in lipoprotein-deficient serum medium
Measurement: 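Fluorescent LDL signal imaged in cells, scaled to the plate median, robust z-score for each replicate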
Reading the numbers: robust z-score: higher = more LDL uptake after knockdown
Call rule: 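Active when two or more replicates show a robust z-score above 2 or below -2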

| gene | robust z-score, replicate 1 | robust z-score, replicate 2 | robust z-score, replicate 3 |
| --- | --- | --- | --- |
| NALF2 | -1.71 | -0.275 | -0.413 |
| SYPL1 | 1.3 | 1.57 | 1.19 |
| ZNF205-AS1 | 0.831 | 0.4 | 0.594 |
| FDX1 | -0.358 | 0.322 | 0.136 |
| GRM5 | 0.177 | -0.774 | 0.212 |
| REXO2 | 0.711 | 0.369 | 0.734 |
| NUP153 | 1.71 | 2.05 | 1.29 |
| LINC02111 | -0.251 | -0.488 | -0.377 |
| MIR1-1HG | 1.49 | 0.456 | 1.27 |
| MRNIP | 1.4 | 0.31 | 1.71 |
| KIF18B | -0.996 | 0.149 | -0.621 |
| FAM131A | -0.768 | 0.396 | 0.101 |
| RHCE | 0.937 | -0.0915 | 0.568 |
| TNFSF15 | 0.261 | -1.35 | -0.397 |
| HOXA11 | 0.333 | 0.367 | 0.404 |
| FOS | 0.428 | 0.29 | -0.354 |
| MYH8 | 0.825 | 0.0697 | 0.435 |
| MEIOB | -1.9 | -1.71 | -1.83 |
| CEP85L | 2.88 (active) | 4.23 | 4.15 |
| NDUFV1 | -1.1 | -0.558 | -0.7 |
| ELP1 | 0.128 | 0.487 | 0.554 |
| AGO2 | -1.16 | -1.39 | -1.24 |
| LOC393078 (retired record) | -0.79 | -0.878 | -1.02 |
| ABCA7 | -0.397 | -0.295 | -0.138 |
| TMED2 | -0.654 | 0.291 | -1.43 |
| LOC390777 (retired record) | 0.757 | 0.519 | 0.339 |
| TXNRD1 | -0.875 | -0.738 | -1.08 |
| MOCS1 | -1.52 | -1.36 | -1.05 |
| CARD17P | -1.71 (active) | -2.21 | -1.8 |
| MIMS2 | -1.51 | -0.759 | -0.692 |
| SAV1 | -0.238 | 1.85 | 0.983 |
| PCDHA1 | -0.345 | 0.429 | -0.736 |
| ZFAND1 | 2.73 (active) | 2.59 | 2.15 |
| LOC388947 (retired record) | -0.426 | 0.0542 | -0.264 |
| DOK4 | 2.05 (active) | 2.69 | 0.718 |
| COL26A1 | 3.15 (active) | 3.31 | 4.16 |
| DBT | 0.44 | -0.828 | -0.256 |
| BHLHA15 | -0.492 | -0.346 | -0.539 |
| SUMF2 | 1.29 | 1.33 | 1.2 |
| SPEN | -2.08 (active) | -2.01 | -1.81 |
| BAIAP3 | 0.45 (active) | 2.96 | 2.29 |
| ACAN | -0.959 | -0.315 | -1.22 |
| ICA1 | -0.913 | -0.355 | -0.475 |
| GPR142 | -0.406 | 0.439 | -0.353 |
| RBP7 | 0.104 | -0.0369 | -0.157 |
| HSPA13 | 1.94 (active) | 2.21 | 1.92 |

Hits, of those listed so far:
| gene | robust z-score, replicate 1 | robust z-score, replicate 2 | robust z-score, replicate 3 |
| --- | --- | --- | --- |
| CEP85L | 2.88 (active) | 4.23 | 4.15 |
| CARD17P | -1.71 (active) | -2.21 | -1.8 |
| ZFAND1 | 2.73 (active) | 2.59 | 2.15 |
| DOK4 | 2.05 (active) | 2.69 | 0.718 |
| COL26A1 | 3.15 (active) | 3.31 | 4.16 |
| SPEN | -2.08 (active) | -2.01 | -1.81 |
| BAIAP3 | 0.45 (active) | 2.96 | 2.29 |
| HSPA13 | 1.94 (active) | 2.21 | 1.92 |
